Experimental findings from the RNAGym collection of RNA variant scans (doi:10.1126/science.aae0568) are described below.

This sample is rich in variants without activity.

The labels stand for the following.
B1: tRNA (parent)
chain: GUUCCGUUGGCGUAAUGGUAACGCGUCUCCCUCCUAAGGAGAAGACUGCGGGUUCGAGUCCCGUACGGAACG

Variants of B1 are the subject of this data set. Nature of the data set: yeast fitness relative to wild type (ratio to wild type); higher = fitter; tRNA-Arg(CCU), competitive growth, 37 C, YPD. A digest of the protocol:
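Genotype frequency changes were the basis for Darwinian fitness relative to wild type. The frequencies came from 100-nucleotide paired-end sequencing of gene amplicons from the start population and each end population of pooled yeast strains with tRNA-Arg(CCU) gene variants at the native locus. Competition ran in YPD at 37°C for 24 hours in six replicates, genotypes needed ≥ 100 starting reads, and estimates < 0.5 were set to 0.5.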
G18C C62G C66A: the yeast fitness was at most 0.5.
The result for G6C A15U A42G reads at most 0.5.
The result for C24G A57G A65C A70C reads at most 0.5; that for C4G A45U A65C, at most 0.5.
With A21U A42G U59A C60A the figure was at most 0.5; with A36G C49G A70G, 0.53.
Turning to G56C C60A, the yeast fitness was determined as 0.587.
With C27G C34A the figure was at most 0.5; with C5U C11G C29A C46A G68C, at most 0.5; with C4G C5G C31A U35C, at most 0.5.
With U8A A14G U59G the figure was at most 0.5; with C4A C5U C34U C66U, at most 0.5.
Take U2G G6A G23A C29G G51C: the yeast fitness was at most 0.5.
The result for G17A A43G A45G A70C reads at most 0.5.
With C24A G25C U47A the figure was at most 0.5; with C27G G48C A65C, at most 0.5; with C11G U16A C29U U53C C62G, at most 0.5.
The result for C11A C22U U26G C27U A40U G48C reads at most 0.5; that for C22A C30A A65C, at most 0.5; that for G9C A21G G44C U47C A70U, at most 0.5.
Turning to C5A U19C C29G C31U, the yeast fitness is at most 0.5.
Regarding U8C A65U A69C, the yeast fitness was determined as 0.615.
G18C C27G C49U: the yeast fitness was at most 0.5.
For the variant C11U U26G G51A, the yeast fitness is at most 0.5.
Turning to C27A G56C, the yeast fitness stood at 0.627.
The result for G17A C34U C62U A70C reads at most 0.5.
With C24G A37U C66A the figure was at most 0.5; with C4U G6C A69U, at most 0.5.
With U2G C5G C11G the figure was at most 0.5.
Consider U2A C27G U53G A70G, for which the yeast fitness was at most 0.5.
With A20U C34A C66A the figure was at most 0.5; with C4G C5U C49A G56A G63C, at most 0.5; with U2G G12A A14G, 0.561.
With C33G C49G U53G C55U the figure was at most 0.5; with C30U U35A G63C A65U, at most 0.5; with G10A A21C C34G G52A C61A, at most 0.5.
U2G C31G A36G U59A: the yeast fitness is at most 0.5.
In the case of G18A C49U, the yeast fitness came out at 0.892.
With U3A C29G C60G G68A the figure was at most 0.5; with U2C U3C U13C A14U C46U G50C, at most 0.5; with C4G C24A G44A A45C C49U C61G, at most 0.5.
The result for U3C A15G C29A A40U C55G C61G reads at most 0.5.
The result for G18A C29U U35A A70U reads at most 0.5; that for C11U A15G G41A U53G, at most 0.5; that for G17A A37C G58A, 0.551.
Turning to C4A G10C C29G, the yeast fitness was at most 0.5.
The result for U16G C27A G39A reads at most 0.5; that for A42G U47A C55G, at most 0.5.
With C5G U19G C22U U32C A65C C66U the figure was at most 0.5; with U7C C27A C46A G51A U53A C62A G68A, at most 0.5.
With C11U A37G G56C the figure was at most 0.5; with G10A G12A A14G C31A C34G G38C G44C U53C, at most 0.5; with C31U G39U A45G G51A, at most 0.5.
As to U28C C33G G38A U64G, the yeast fitness is at most 0.5.
With A20C G41C U59G G63C the figure was at most 0.5; with C11A C22G A70C, at most 0.5.
The result for U35G U47A G48A A65U reads at most 0.5; that for G10C C30G A65C G68C, at most 0.5; that for C4A U32C C46A, 0.697.
On to C4U G23C C49G G58C, for which the yeast fitness is at most 0.5.
The result for U16A C24U C30G U35A U54A C62G C66U A70G reads at most 0.5; that for C4A G6A U54A U59G A65C, at most 0.5.
Take U8A G38A G58C C66U: the yeast fitness is at most 0.5.
With C11A A14C C34A G58C the figure was at most 0.5; with C5G G9A C11G U19G C31G A43U A70G, at most 0.5.
With U8A C31G G68A the figure was at most 0.5; with C4G C5U C34U, at most 0.5.
Take U8C U13G C22U C49U: the yeast fitness is at most 0.5.
The result for G12C A43U C61G C66A A70U reads at most 0.5; that for G10A A21C C24A C66A, at most 0.5.
With C5G A14C C30U C61A the figure was at most 0.5; with C4A U35C G48C C55U G56A, 0.51.
The result for C4G G10A U13C U32A A70C reads at most 0.5; that for G18A G39A A40C G52A G58A A65G, at most 0.5.
As for C5U C30U G44A G56A, the yeast fitness is at most 0.5.
With C11U C29G G48A C61A the figure was at most 0.5.
The result for C31A C49A G56A A65G C66A G68C reads at most 0.5; that for C55G G67A, 0.729; that for U7A A20G G58U, at most 0.5.
U8A G18C C27U U32C C66G A70U: the yeast fitness is at most 0.5.
Turning to U13G A14C G39C G41A A65U G68C, the yeast fitness is at most 0.5.
With C24U A36G C46A U47C C55A G67A the figure was at most 0.5.
U7C U8A A20G C24G U64C: the yeast fitness was at most 0.5.
With U3A U32C A37C C46U the figure was at most 0.5.
With C4U A45U G68C the figure was 0.7; with C31A U35A A36U U47C C66U, at most 0.5.
The result for U32A C46A C62A reads at most 0.5; that for U2G C27U A42U C46G, at most 0.5.
As to U26G A45G C46U U53G, the yeast fitness was 0.599.
The result for A37G U54A C61U reads at most 0.5; that for U2G U16G C27A A36C G51A A57U, at most 0.5; that for A20U C24G C31A A65C, at most 0.5.
With U3A C5U C31G A57G the figure was at most 0.5; with A15C C33A C34U A36C U64C, at most 0.5.
With C60A G67C A69U the figure was at most 0.5; with U16C C46G U54A A57C U64G, at most 0.5.
Take C4U A37U C66A: the yeast fitness is 0.542.
The result for A15C A36C G38C G52A reads at most 0.5; that for C11U U16A C29G A37C A42U A57G G67A, at most 0.5.
The result for C31G C46G G56A A65C G67C reads at most 0.5; that for U2G C60A A65C, at most 0.5; that for U28G C61A, 0.561.
For the variant U8G A21C U54A A57G, the yeast fitness was at most 0.5.
With C24A A36U C61A A69C the figure was at most 0.5.
As for G23A A36C C55G, the yeast fitness is at most 0.5.
The result for U32A A37G C46A U53A reads at most 0.5; that for A21U C33G A42G G44A G63A U64C, at most 0.5; that for C5G U16A G48A U54C U64G, at most 0.5.
The result for U3C A57G C60A C66G reads at most 0.5; that for C49G G50A G68C A69G, at most 0.5.
Turning to C27G A43C C60G, the yeast fitness is at most 0.5.
The result for C5G G52C G56A reads at most 0.5.
With A15G A21C G25C U26G U59A A70C the figure was at most 0.5; with C29G U35C C49G C55A, at most 0.5.
With A20G C24G C30G the figure was at most 0.5; with A21U U26A A37C, at most 0.5.
A15C C33G G50A U64A: the yeast fitness is at most 0.5.
With C5U C11A A14G A42G C55U the figure was at most 0.5; with U47C G68U, 1.1.
Turning to U7G A14G C22U G38A C62U, the yeast fitness is at most 0.5.
C11G A14G A15U G23C: the yeast fitness is at most 0.5.
The result for C5G A21C G41C reads at most 0.5; that for C5U G56A C62G, at most 0.5.
The result for A43U A65U C66A reads at most 0.5; that for A20U U47C G50A A57U, at most 0.5; that for A14U A20C C66A, at most 0.5.
The result for A37U A40C G51A reads 0.687.
As to G17C A57C, the yeast fitness is at most 0.5.
With C4A G17C C22U the figure was at most 0.5.
For C34A U47G C49G C60G, the yeast fitness came to 0.571.
The result for U54A C55G reads at most 0.5; that for U13A C34G A37U A40U C66U, at most 0.5; that for U2G G10C A42U A45U C49G, at most 0.5.
With U28C C34U the figure was 0.71.
The result for C29U C55U C61A reads at most 0.5.
As to U7A C29U G58A, the yeast fitness was at most 0.5.
For the variant U13G C27U C62G, the yeast fitness is at most 0.5.
With U32C A37U U54A the figure was at most 0.5; with C5G U13C C31U A42G C46G G63C, at most 0.5.
On to C34G C66A A69U, for which the yeast fitness is at most 0.5.
On to U8C C30G C31G G63A, for which the yeast fitness is at most 0.5.
Consider U13G G25A U59C, for which the yeast fitness was found to be 0.681.
The result for G18C A42U G48C G68C A69U reads at most 0.5; that for G10A C24U C29U C30G U53C, at most 0.5; that for C29A A37G C49U, at most 0.5.
On to U3A A36C G51C G67U, for which the yeast fitness is at most 0.5.
With C22U C49G U53A the figure was 0.558; with C27A G38C A40U C62U, at most 0.5.
The result for A21G U53C A57C reads at most 0.5; that for C22U A43U U59C, at most 0.5; that for G6A A20C A21U C46G, at most 0.5.
With C24A A45G C61G C62U the figure was 0.543; with C27U G63C G67U, at most 0.5.
Take G50A G51A G52A: the yeast fitness is at most 0.5.
With U19C C22G C61U A65U, the yeast fitness was at most 0.5.
With A21C C24G C29U A42C U59G G67U the figure was at most 0.5; with G9A A36U C55G G58C, at most 0.5; with A14C G48A G50C, at most 0.5.
As to G23A C29U C60U, the yeast fitness is at most 0.5.
The result for G9C G10C U35A G38A C61G reads at most 0.5; that for U7G C11G U32A U53G C66U, at most 0.5.
The result for U54A C62U A70U reads at most 0.5; that for G23C A42U A57U G58C, at most 0.5; that for U32A A57U G68U, at most 0.5.
With U2C U13C G23C C55G the figure was at most 0.5.
U13G C24U U28A A42G A69C: the yeast fitness is at most 0.5.
The result for C5U C27G U47C A70U reads at most 0.5.
